In article PMC7819943, “Rice protein-binding microarrays: a tool to detect cis-acting elements near promoter regions in rice”:
The list shows a part of the results.

The chains behind the UniProt entries cited, without tags or fusion partners.
UniProt Q0JBA9, entry or part of it: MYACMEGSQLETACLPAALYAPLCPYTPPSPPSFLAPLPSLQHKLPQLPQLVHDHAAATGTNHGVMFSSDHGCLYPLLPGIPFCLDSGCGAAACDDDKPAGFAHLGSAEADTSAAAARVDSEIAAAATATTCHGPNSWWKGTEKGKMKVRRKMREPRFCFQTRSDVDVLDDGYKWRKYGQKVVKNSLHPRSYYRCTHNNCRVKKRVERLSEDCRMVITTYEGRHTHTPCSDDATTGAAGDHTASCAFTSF

Target: OsWRKY34 (Oryza sativa, UniProt Q0JBA9 1-250)
Experiment: protein-binding microarray (RPBM); PBS, 2% BSA, 51.3 ng/ul salmon testes DNA, 50 uM zinc acetate, 200 nM TF, 25 C, 1 h; high values mean tight binding
Settings: protein: recombinant; tags: N-terminal polyhistidine and DsRed monomer fusion (pET32a); label: CyDye5-dUTP incorporated in the synthesized complementary strand; 3' TTTTT single-stranded linker to array surface; dsDNA, one strand shown
In short: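 A custom Agilent array was converted to double-stranded form by primer extension with Cy5-dUTP and blocked with 2% BSA. Protein at 200 nM in PBS with 2% BSA, salmon testes DNA and 50 µM zinc acetate was applied for 1 h at 25 °C, followed by washing. The proteins were polyhistidine–DsRed N-terminal fusions of transcription factors, expressed in E. coli BL21-CodonPlus and Ni–NTA-purified. The binding signal is per-feature fluorescence intensity (arbitrary units) from an Axon 4000B scanner.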

In order of rising binding signal:
1. TGACGACCAGCTGAAACACGCGCGCGCGCGCCCACACACACGGAGTCACCTAGTGCAG  8050 fluorescence intensity (a.u.)
2. GTTAGCGTTGGTGTCAATTTCTTTCTTGCTTGCTTCCAACCGGAGTCACCTAGTGCAG  8070 fluorescence intensity (a.u.)
3. GCTGTGTTTTCTTTTCTTACATACTCTATCTCTGAGATTCCGGAGTCACCTAGTGCAG  8110 fluorescence intensity (a.u.)
4. GGCGTTCCTGCCCAACCCAGCCCTGTTGCCATCCCTACGACGGAGTCACCTAGTGCAG  8120 fluorescence intensity (a.u.)
5. GTTTTTTGTTTTTAAGTAACCTTTCCCCTTGTCACTTTTTCGGAGTCACCTAGTGCAG  8130 fluorescence intensity (a.u.)
6. AACTACATTTGGGCCAGCTCTTCTTCCTTTGATTTGAAAACGGAGTCACCTAGTGCAG  8150 fluorescence intensity (a.u.)
7. GCCTATTTTGTTGTTGTCCTGCACGATTTGAAAACGTTAGCGGAGTCACCTAGTGCAG  8192 fluorescence intensity (a.u.)
8. TCCGGTTGTTTGCCGTGGCACTTCCTTTCTCCCTATTGGCCGGAGTCACCTAGTGCAG  8260 fluorescence intensity (a.u.)
9. GCTATGCACCACACTCTTCGGCTTGCGTCAATATTCTACACGGAGTCACCTAGTGCAG  8270 fluorescence intensity (a.u.)
10. GGTAGCATACCAAAGTCCATAACTCTCTAGCTAATTAATCCGGAGTCACCTAGTGCAG  8320 fluorescence intensity (a.u.)
11. CCAACAGTGCTGTTGTCGCCACGCTCTTTGTGTTGCTGCCCGGAGTCACCTAGTGCAG  8380 fluorescence intensity (a.u.)
12. CAAGTACCCAACCCGCGTCGTCATCGTCGTCTTCCTACTTCGGAGTCACCTAGTGCAG  8430 fluorescence intensity (a.u.)
13. ACCTGCGAGTTATTCAGCTCATTTTTCCTGCCAAACATTACGGAGTCACCTAGTGCAG  8440 fluorescence intensity (a.u.)
14. CCCCGTGTCCGACGTTTGACCGTTCGTTTTATTTAAAAAACGGAGTCACCTAGTGCAG  8440 fluorescence intensity (a.u.)
15. ATAGTTAATATGTCTATCCCGTTACAACGGGATCCTGTTTCGGAGTCACCTAGTGCAG  8440 fluorescence intensity (a.u.)
16. CCGCTACCGTTGGCCACCACAAGATACAAGCTCGCTATGCCGGAGTCACCTAGTGCAG  8470 fluorescence intensity (a.u.)
17. AGAAGTTAGTAGTGGAGGGTTGTGGTTGAATGAGTAGTAGCGGAGTCACCTAGTGCAG  8550 fluorescence intensity (a.u.)
18. TTCATCGTGTTCGTCATTTTTCCTTTTTCTTCCTCCTCTCCGGAGTCACCTAGTGCAG  8570 fluorescence intensity (a.u.)
19. CTTCTTGTTGCCTCTTGCCTCCTTCTTCTTCTTCTTCGTCCGGAGTCACCTAGTGCAG  8600 fluorescence intensity (a.u.)
20. AAACCTGTGGATGGCGGGGCGGTCGTGCGGCGGGAGGAGGCGGAGTCACCTAGTGCAG  8600 fluorescence intensity (a.u.)
21. TGAAATTTCTACTGTCATGCTTCCTTGTCCCATTACAACACGGAGTCACCTAGTGCAG  8610 fluorescence intensity (a.u.)
22. AACTAGAATCCTATCTACCTCACGTTTTCTCCAGCTGTCCCGGAGTCACCTAGTGCAG  8620 fluorescence intensity (a.u.)
23. GCCCACCATCCTTCCGGTTCTCCAGCTACGCAACAATAATCGGAGTCACCTAGTGCAG  8650 fluorescence intensity (a.u.)
24. GCACGGAGCCACGGACGGGCTCCCTACTTTTCTCGAGTTTCGGAGTCACCTAGTGCAG  8740 fluorescence intensity (a.u.)
25. GCCGACCCATCACCGTCGTTGCCGCCATTTTCCATTATCGCGGAGTCACCTAGTGCAG  8800 fluorescence intensity (a.u.)
26. CTCAACATGGTAGGCTAACTTTCTCACCTCTGCAATCCAACGGAGTCACCTAGTGCAG  8810 fluorescence intensity (a.u.)
27. AACTGCTTGCGCATCCGTATCAAACAGCTTCTTTTCATCACGGAGTCACCTAGTGCAG  8970 fluorescence intensity (a.u.)
28. CGCAAGCGATCTTTTCACTTTGAGCTACTGTACCTTTTTTCGGAGTCACCTAGTGCAG  8980 fluorescence intensity (a.u.)
29. GGTCTGACATGTGGGCCCCACATGTCAGTGGGCCCATATTCGGAGTCACCTAGTGCAG  9000 fluorescence intensity (a.u.)
30. AATTTCTGTTTTATTTCCTTTCTCTCGTCACCAAATTTACCGGAGTCACCTAGTGCAG  9050 fluorescence intensity (a.u.)
31. CCCCTGTCCGTCGCCGCCACCGCCGCCGCCGCCGGCGGCGCGGAGTCACCTAGTGCAG  9120 fluorescence intensity (a.u.)
32. GATATCTACTTGCTTTTATTTTTGCTTGAACCATGACAATCGGAGTCACCTAGTGCAG  9150 fluorescence intensity (a.u.)
33. GTGGTAGTGGTGGCTCAATGACGAGGAGGGGCGGCGAGAGCGGAGTCACCTAGTGCAG  9160 fluorescence intensity (a.u.)
34. TGTTCTGGATGCTGTGTTGTTAAGGTACAACTTTTTCTTACGGAGTCACCTAGTGCAG  9190 fluorescence intensity (a.u.)
35. AATACTTAATTAATCATACGTTAATGGCTCATCTCGTTTTCGGAGTCACCTAGTGCAG  9320 fluorescence intensity (a.u.)
36. TGTCTTTATTTTGTGAGAGTACTCCAACCCACTCTAATTCCGGAGTCACCTAGTGCAG  9330 fluorescence intensity (a.u.)
37. GAATTGCTTCTTTTTCTTCCATCCTCCTTCAGGTATCATTCGGAGTCACCTAGTGCAG  9350 fluorescence intensity (a.u.)
38. ATGCATCTTTACCCCTTTTGCACCCATGCATTGCTTGTGACGGAGTCACCTAGTGCAG  9660 fluorescence intensity (a.u.)
39. ATTGCCACACTCTTTTCATATGCACAAAAATAACCTAGAACGGAGTCACCTAGTGCAG  9680 fluorescence intensity (a.u.)
40. TATCCGTTCGCGTCCCCGCCCTCGCTTCGCCGCGGCAATGCGGAGTCACCTAGTGCAG  9720 fluorescence intensity (a.u.)
41. CTCGCTCACTCGGTCAGCTGCACACACACTGCACTTCGGCCGGAGTCACCTAGTGCAG  9820 fluorescence intensity (a.u.)
42. CCACTCACTTTCCCCACACGCGTTCGTCACTCCAAGCTCGCGGAGTCACCTAGTGCAG  9900 fluorescence intensity (a.u.)
43. ACCAAGCCCTAGTCCCCGCCACGCCACCGTCCGCCGGCCGCGGAGTCACCTAGTGCAG  9930 fluorescence intensity (a.u.)
44. TAATTTGCGATTTCGGGCTAGGGTTTCTTTCCAACTTTTTCGGAGTCACCTAGTGCAG  10000 fluorescence intensity (a.u.)
45. ATCCCGCTCCTCGTCTCCTCTCCGAAGTCTCCTCTTGTCACGGAGTCACCTAGTGCAG  10200 fluorescence intensity (a.u.)
46. AATCTGACTGAAGTATGTACTTTGTGTTGACCAATTTGGCCGGAGTCACCTAGTGCAG  10200 fluorescence intensity (a.u.)
47. ACCACATCCACTGCCGCGCCACGCCTCTCGGCCGCCACACCGGAGTCACCTAGTGCAG  10300 fluorescence intensity (a.u.)
48. CATTTTTTTTATTGTGTTACCATACAGTTTTGCTTTCTCGCGGAGTCACCTAGTGCAG  10400 fluorescence intensity (a.u.)
49. GCACCCACAGTTCCATGAGACACATAGAAGTTTTACACAACGGAGTCACCTAGTGCAG  10600 fluorescence intensity (a.u.)
50. ATTCTTTCTTTTTGGCCTCCTCTCCTCTTGTCTCGCTCTTCGGAGTCACCTAGTGCAG  10700 fluorescence intensity (a.u.)
51. AAAAATTCTGACGCCTATACTTGCATTTTTGACTGTTTGCCGGAGTCACCTAGTGCAG  11000 fluorescence intensity (a.u.)
52. CTCCCGCATGCCCTTGATTTTCCACAACTGATTTTATTCCCGGAGTCACCTAGTGCAG  11700 fluorescence intensity (a.u.)
53. TACTCATGCTGTGTTTTTCCCCTTTGCTACCTCACAGTTCCGGAGTCACCTAGTGCAG  13600 fluorescence intensity (a.u.)
54. CAGCTTTCATCACCACAGCACTACTACTTGCATGACTCAACGGAGTCACCTAGTGCAG  13800 fluorescence intensity (a.u.)
